# Results reported in PubChem BioAssay AID540275 (National Center for Advancing Translational Sciences (NCATS), 2011).
# Sequences of proteins named here, by UniProt entry; tags and fusion partners are left off.
# UniProt Q8NER1, whole entry, looked up: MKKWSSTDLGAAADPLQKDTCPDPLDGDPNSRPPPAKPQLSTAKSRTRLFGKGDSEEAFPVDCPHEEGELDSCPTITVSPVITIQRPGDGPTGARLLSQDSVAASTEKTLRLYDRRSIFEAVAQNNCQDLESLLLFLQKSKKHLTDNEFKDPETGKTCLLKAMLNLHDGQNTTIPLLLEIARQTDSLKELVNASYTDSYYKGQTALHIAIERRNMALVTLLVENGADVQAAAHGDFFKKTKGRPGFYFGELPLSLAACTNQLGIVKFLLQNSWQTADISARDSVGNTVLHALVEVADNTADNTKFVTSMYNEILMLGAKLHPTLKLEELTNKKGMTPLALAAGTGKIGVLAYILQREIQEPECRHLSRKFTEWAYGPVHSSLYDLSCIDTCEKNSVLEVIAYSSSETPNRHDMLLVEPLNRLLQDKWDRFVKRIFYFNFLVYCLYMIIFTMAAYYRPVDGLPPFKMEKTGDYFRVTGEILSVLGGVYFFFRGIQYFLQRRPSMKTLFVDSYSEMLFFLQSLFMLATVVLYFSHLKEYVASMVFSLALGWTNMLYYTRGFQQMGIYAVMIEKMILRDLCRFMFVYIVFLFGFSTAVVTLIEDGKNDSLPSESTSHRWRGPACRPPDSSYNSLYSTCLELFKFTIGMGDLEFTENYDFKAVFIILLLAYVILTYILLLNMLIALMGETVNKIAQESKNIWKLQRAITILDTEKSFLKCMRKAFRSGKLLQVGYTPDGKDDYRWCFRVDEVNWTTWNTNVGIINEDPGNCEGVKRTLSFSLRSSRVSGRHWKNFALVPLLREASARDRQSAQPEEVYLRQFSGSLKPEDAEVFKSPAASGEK
# Among all 320,000 compounds or so, about 620 (0.19%) were called active. The shares of active, inactive and inconclusive entries below differ from those in the screen. No stated cut-off is given here; in the data, active means activation above about 80%; inconclusive means between about 30% and that limit; inactive means weaker than that.
# Molecular target: Transient receptor potential cation channel subfamily V member 1 (Homo sapiens) (UniProt Q8NER1)
# Assay: HTS Assay for Compounds that Act as Agonists of the Vanilloid Receptor 1; further: 0% is about no effect
# Conditions: TRPV1-expressing cells, Fluo-8 calcium influx, agonist mode; at 8.33 µM, active compounds read high
# How it was run: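 Cells expressing TRPV1 were dye-loaded with Fluo-8 and read kinetically: 10 s baseline, 3 min after compound (agonist portion), then 2 min after EC20 capsaicin (allosteric enhancer portion). Calcium-bound dye fluorescence at 480/520 nm.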
row,SMILES,activation
1,COc1ccccc1N1CCN(C(=O)c2ccc3c(Cl)c4c(nc3c2)CCCC4)CC1,inactive: 3.35%
2,N#Cc1c(NC(=O)COC(=O)C2CC3C=CC2C3)oc(-c2ccccc2)c1-c1ccccc1 (stereo not given),inconclusive: 35.4%
3,C=CCNC(=O)c1ccc(C(=O)c2ccccc2)cc1,inconclusive: 58.2%
4,Cc1cccc(-c2noc(CN(C(=O)c3ccc4c(c3)OCO4)C(C)C)n2)c1,inconclusive: 33.5%
5,Cc1cc(C)n(-c2ccc(C(=O)Nc3cccnc3Cl)cc2)n1,inconclusive: 31.6%
6,S=C1Cc2ccccc2C(c2ccc(Cl)cc2)N1 (stereo not given),inactive: 13%
7,O=C(Nc1ccc(Br)cc1F)c1ccncc1,inconclusive: 35.1%
8,Cn1nc(-c2ccccc2)cc1NC(=O)c1ccccc1,inconclusive: 47.2%
9,Cc1ncsc1CCOC(=O)c1ccc(Cl)cc1,inconclusive: 34.6%
10,CC(C)=CC(=O)Nc1ccc(Br)cc1,inconclusive: 61.2%
11,CC1C(=O)N2CCCc3cc(S(=O)(=O)Nc4ccccc4C(N)=O)cc1c32 (stereo not given),inactive: 1.78%
12,O=C(CNC(=O)c1ccccc1)OC(C(=O)Nc1cc(C(F)(F)F)ccc1Cl)c1ccccc1 (stereo not given),inconclusive: 40.1%
13,CCCCNc1c(-c2cccc(-c3cc(C(C)=O)cs3)c2)nc2ccc(C)cn12,inconclusive: 64.3%
14,COc1ccc(-c2nc3ccccc3nc2-c2ccc(OC)cc2)cc1,inconclusive: 30.6%
15,O=C(c1ccc(-c2cccc(C(F)(F)F)c2)o1)N1CCCC(C(F)(F)F)C1 (stereo not given),inconclusive: 41.9%
16,Cc1ccc(Cl)c(OCC(=O)Nc2cccnc2)c1,inactive: 22.3%
17,CCc1nc(N2CCN(C(=O)c3ccco3)CC2)c2oc3ccccc3c2n1,inconclusive: 36%
18,C/C(=N\NC(=O)c1c(Cl)c(C)nn1C)c1cccc(NC(=O)COc2ccccc2)c1,inactive: 0.886%
19,O=C(COC(=O)c1ccc(CO)cc1)c1ccc(S(=O)(=O)N2CCCCC2)cc1,inactive: 0.731%
20,COc1cccc(OCc2cc(C(=O)N3CCC(C(O)C(C)C)CC3)no2)c1 (stereo not given),inconclusive: 51.9%
21,Cc1ccc2c(CN(C)Cc3cccc(F)c3)cc(=O)oc2c1,inconclusive: 39.6%
22,CCN(CC)C(=O)c1ccc(-c2nnc(Nc3ccc(C(=O)N(C)C)cc3)c3ccccc23)cc1,inactive: 3.18%
23,CCc1cccc(C)c1NC(=O)CN(C)Cc1ccc(Br)cc1,inconclusive: 31.9%

row,SMILES,activation
1,CC(C)NC(=O)c1ccc(-c2cccc(C(F)(F)F)c2)o1,inconclusive: 57.6%
2,Cc1ccc(CNC(=O)c2ccccc2NC(=O)CN2CC(C)OC(C)C2)cc1 (stereo not given),inconclusive: 50.5%
3,O=C(Nc1nc2ccc(F)cc2s1)C1=COCCO1,inconclusive: 59.3%
4,CCCCCCCCCCS(=O)(=O)N/N=C/c1ccc(O)cc1,inconclusive: 38.1%
5,COc1ccccc1Oc1nc(-c2cccnc2)nc2ccccc12,inconclusive: 35.5%
6,Cc1ccc(C(=O)COc2nc(C)nc3ccccc23)cc1,inactive: 12.4%
7,Cc1cc(C)cc(N(CC(=O)N/N=C/c2ccncc2)S(=O)(=O)c2ccccc2)c1,inconclusive: 56.9%
8,CCOc1ccc(NC(=O)c2ccc(S(=O)(=O)N(C)C)cc2)cc1,inconclusive: 79.6%
9,COC(=O)c1nc(NC(=O)c2ccc(Br)cc2)n[nH]1,inactive: -0.722%
10,COc1cc2[nH]c(C(=O)N3CCc4ccccc43)cc2c(OC)c1OC,inconclusive: 31.3%
11,O=S(=O)(c1ccc(Br)cc1)N1CCN(Cc2ccco2)CC1,inactive: 14.2%
12,CN(C)c1ccc(/C=C2\SC(=O)N(CC(O)Cn3c4ccccc4c4ccccc43)C2=O)cc1 (stereo not given),inactive: 1.61%
13,O=C(c1cccs1)N1CCN(c2ccc(F)cc2)CC1,inconclusive: 35.3%
14,CC(C)Nc1oc(-c2cccc3ccccc23)nc1C#N,inconclusive: 49.4%
15,COc1cc2ncc(C(=O)c3ccccc3)c(N3CCN(Cc4ccccc4)CC3)c2cc1OC,inconclusive: 30.7%
16,Cc1ccc(Sc2ccc(NC(=O)CCl)cc2)cc1C,inconclusive: 31.2%
17,O=C(CN(Cc1ccc(F)cc1)C(=O)Cn1nnc2ccccc21)NCC1CCCO1 (stereo not given),inactive: 0.409%
18,O=C1C(NS(=O)(=O)c2ccccc2)=C(N2CCN(c3ccc(F)cc3)CC2)C(=O)c2ccccc21,inactive: -3.37%
19,CCCCc1ccc(Nc2ncnc3nc[nH]c23)cc1,inconclusive: 59.5%
20,NC(=O)CC[C@H](NC(=O)OCc1ccccc1)C(=O)OCc1ccc(Cl)cc1,inconclusive: 44.9%
21,CCc1ccccc1OC[C@@H](O)CN[C@H]1CCCc2ccccc21,inactive: 2.12%
22,COc1ccc(/C=N/NC(=O)c2ccc(Cl)c(S(N)(=O)=O)c2)cc1OCC(N)=O,inactive: -6.67%
23,O=C(CSc1nnc(-c2cccc(Br)c2)o1)N1CCOCC1,inconclusive: 58%

row,SMILES,activation
1,COc1ccc(/C=C2\SC(=S)N(CC3CCCO3)C2=O)cc1 (stereo not given),inactive: 21.8%
2,Cc1ccc(-n2cc(-c3ccccc3)[nH]c2=O)cc1F,inconclusive: 56.5%
3,Brc1ccc(OCc2nc3ccccc3[nH]2)cc1,inconclusive: 72.3%
4,O=C(NC(=S)NCc1ccc(F)cc1)c1ccccc1,inconclusive: 40.3%
5,CCCc1nnc(SCCSc2nnc(CCC)n2N)n1N,inactive: -0.885%
6,CN(C)/C=N/c1sc2c(c1C#N)CCCC2,inconclusive: 30.7%
7,CCN(CC)c1c([N+](=O)[O-])c(=O)n(CC)c2ccccc12,inconclusive: 32%
8,COc1ccccc1NC(=O)N1CCC(C(=O)c2ccc(Cl)cc2)CC1,inconclusive: 58%
9,Cc1ccc(Nc2c(-c3ccco3)nc3nc(C)cc(C)n23)cc1,inconclusive: 37.9%
10,C=C(C(=O)c1ccccc1)C(C)CC(=O)c1ccccc1 (stereo not given),inconclusive: 41.5%
11,COCCN(C(=O)Cc1cccs1)C(C(=O)NC1CCCC1)c1cc(OC)c(OC)c(OC)c1 (stereo not given),inconclusive: 54.5%
12,CC(=O)Nc1cccc(C(=O)NC2CCCc3c2cnn3-c2ccc(C(C)(C)C)cc2)c1 (stereo not given),inconclusive: 70.2%
13,CC(C)Cn1c(SC(C)C(=O)Nc2ccc(N3CCOCC3)cc2)nc2ccccc21 (stereo not given),inconclusive: 48.5%
14,O=C1c2ccccc2C(=O)N1CCOc1ccccc1Br,inconclusive: 43.9%
15,CCOc1ccc(Nc2nc(N)c3ccccc3n2)cc1,inactive: 0.544%
16,O=C(COC(=O)c1cccnc1Cl)Nc1cccc(S(=O)(=O)N2CCCCC2)c1,inactive: 2.29%
17,O=C(CCc1nnc2ccc(N3CCC4(CC3)OCCO4)nn12)NCc1ccccc1Cl,inactive: -1.35%
18,Cc1nn(CC(=O)OCC(=O)c2ccc(OC(F)F)cc2)c(C)c1[N+](=O)[O-],inactive: -1.62%
19,CCc1c(C)nc2cc(-c3cc(OC)cc(OC)c3)nn2c1N1CCCC1,inconclusive: 31.8%
20,O=C(c1ccco1)N1CCN(c2nc3ccsc3c(=O)s2)CC1,inconclusive: 30.4%
21,COc1ccc(/C=N/n2c(-c3ccco3)nc3ccccc3c2=O)cc1,inconclusive: 39.3%
22,CN(C)c1ccc(C(=O)/C=C/c2cccnc2)cc1,inactive: -2.38%
23,CCCN(Cc1ccccc1)C(=S)NC(=O)c1ccccc1[N+](=O)[O-],inconclusive: 48.5%

row,SMILES,activation
1,COc1ccc(CNC(=O)c2ccc(S(=O)(=O)NCc3ccco3)cc2)cc1,inactive: -2.49%
2,CS(=O)(=O)N1CCN(C(=O)COc2ccc3ccccc3c2)CC1,inconclusive: 46.8%
3,COC/C=C/C1=CC(=O)C[C@H](c2ccc3c(c2)OCO3)C1,inconclusive: 49.9%
4,Cc1cc(/C=N/NC(N)=S)c(O)c(/C=N/NC(N)=S)c1,inconclusive: 31.7%
5,COCC1CCN(C(=O)c2cc(COc3ccccc3SC)on2)C1 (stereo not given),inconclusive: 36.3%
6,COc1cccc(-c2nnc(SCC(=O)Nc3ccc(OC)c(OC)c3)n2N)c1,inconclusive: 47.5%
7,O=C(NCC1CCCCC1)c1cc(S(=O)(=O)N2CCCCC2)ccc1N1CCOCC1,inconclusive: 77.4%
8,O=C(Nc1ccc2c(c1)OCO2)c1cc(-c2ccccc2Cl)on1,inconclusive: 39.6%
9,COc1ccc(Cl)cc1NC(=O)NC(C)c1ccncc1 (stereo not given),inactive: 9.97%
10,Cc1cc(SCC(=O)Nc2cccc(S(N)(=O)=O)c2)c(C)cc1Br,inconclusive: 50.2%
11,O=C(NCC(c1ccco1)N1CCN(c2ccccc2F)CC1)C(=O)NC1CC1 (stereo not given),inconclusive: 42.7%
12,O=C(Nc1nnc(C2CC2)s1)c1cc([N+](=O)[O-])ccc1N1CCCCC1,inactive: 29.6%
13,CCCn1c(SCC(=O)c2cc(C)n(-c3ccc4c(c3)OCO4)c2C)n[nH]c1=O,inconclusive: 52.2%
14,COc1ccc(/C=N/Nc2cc(C)nc3ccccc23)cc1,inactive: -1.46%
15,COCCCN(C(=S)Nc1c(C)cc(C)cc1C)C(C)c1ccccn1 (stereo not given),inactive: 3.13%
16,CN(CC1CCCO1)S(=O)(=O)c1ccc(C(=O)Nc2ccc([N+](=O)[O-])cc2)cc1 (stereo not given),inconclusive: 49%
17,COc1ccc(OC2CCN(C(=O)Nc3ccc(C)cc3)CC2)cc1,inconclusive: 72%
18,Cc1ccc(S(=O)(=O)NC(=O)Nc2ccc(C)cn2)cc1,inactive: -1.81%
19,O=C(c1ccc2c(c1)CCN2S(=O)(=O)c1ccccc1)N1CCN(c2ccc(F)cc2)CC1,inactive: 0.721%
20,COc1cccc(N2CCN(C(=S)Nc3cc(C)cc(C)c3)CC2)c1,inconclusive: 42.7%
21,O=C(Nc1ccccn1)c1ccc(S(=O)(=O)N2CCCCCC2)cc1,inconclusive: 39.7%

# 6 of the compounds above, as tab-separated lines:
row	SMILES	activation
4	Cc1cc(/C=N/NC(N)=S)c(O)c(/C=N/NC(N)=S)c1	inconclusive: 31.7%
5	COCC1CCN(C(=O)c2cc(COc3ccccc3SC)on2)C1 (stereo not given)	inconclusive: 36.3%
6	COc1cccc(-c2nnc(SCC(=O)Nc3ccc(OC)c(OC)c3)n2N)c1	inconclusive: 47.5%
7	O=C(NCC1CCCCC1)c1cc(S(=O)(=O)N2CCCCC2)ccc1N1CCOCC1	inconclusive: 77.4%
8	O=C(Nc1ccc2c(c1)OCO2)c1cc(-c2ccccc2Cl)on1	inconclusive: 39.6%
9	COc1ccc(Cl)cc1NC(=O)NC(C)c1ccncc1 (stereo not given)	inactive: 9.97%
